Experimental data published in PubChem BioAssay AID1671190 (National Center for Advancing Translational Sciences (NCATS), 2021).
Screen size: about 580,000 compounds; about 6,100 (1.1%) were called active. Inconclusive means that the source gave no clear call. Such entries were picked first, then a sample of the others. The call rests on the fitted dose curve; in most records, active means well fitted inhibition curve with a large enough effect; inconclusive means small, poorly fitted or top-dose-only effect, or another doubt; inactive means no such curve, though single readings can be large or run the other way. A potency beside an inconclusive call is a rough fit, not a confirmed value.

Amino acid sequences for entries named in this document (tags omitted). A change or cut given only in a name is not applied to a line headed by its entry.
UniProt P18054: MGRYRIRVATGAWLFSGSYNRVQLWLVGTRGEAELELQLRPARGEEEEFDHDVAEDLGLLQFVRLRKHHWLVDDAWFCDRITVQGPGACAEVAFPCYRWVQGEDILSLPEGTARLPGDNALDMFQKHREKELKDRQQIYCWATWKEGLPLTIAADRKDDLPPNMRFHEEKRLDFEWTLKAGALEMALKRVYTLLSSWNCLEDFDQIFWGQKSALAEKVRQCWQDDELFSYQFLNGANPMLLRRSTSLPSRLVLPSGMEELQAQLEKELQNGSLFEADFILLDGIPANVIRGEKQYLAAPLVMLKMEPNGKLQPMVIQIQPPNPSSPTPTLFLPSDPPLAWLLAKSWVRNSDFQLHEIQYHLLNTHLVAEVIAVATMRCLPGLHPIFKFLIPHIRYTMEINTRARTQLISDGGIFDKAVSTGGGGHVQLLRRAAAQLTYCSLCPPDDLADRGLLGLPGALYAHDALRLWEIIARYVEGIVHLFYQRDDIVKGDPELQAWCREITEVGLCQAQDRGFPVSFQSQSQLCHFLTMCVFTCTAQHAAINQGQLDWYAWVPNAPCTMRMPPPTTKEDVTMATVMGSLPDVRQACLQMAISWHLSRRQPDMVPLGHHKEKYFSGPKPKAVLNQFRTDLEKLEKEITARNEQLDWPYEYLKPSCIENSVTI

The compounds below were run against Polyunsaturated fatty acid lipoxygenase ALOX12 (Homo sapiens) (UniProt P18054) (assay: Primary qHTS assay for inhibitors of human arachidonate 12S-lipoxygenase (ALOX12): Round 2). Details: purified 12hLO, xylenol orange hydroperoxide absorbance; series mostly up to 108 µM.
Description: Assay Provider: Theodore R. Holman Ph.D. University of California, Santa Cruz, California Human lipoxygenase 12hLO is a member of the closely related lipoxygenase family of enzymes which catalyze the site-specific oxidation of arachidonic acid to various hormone precursor molecules and as such is a candidate for drug development in a variety of disease areas, such as cancer and inflammation. Inhibition of 12hLO activity was screened by utilizing arachidonic acid as a substrate. The extent of hydroperoxide product formation was measured by a secondary chromogenic reaction in which xylenol orange (XO, Sigma-Aldrich, cat. number 39,818-7) reacts with the ferric ions produced from the reaction between the hydroperoxide and ferrous ions. The Fe (III)-XO complex is characterized with red-shifted absorbance at 560 nm. A purified preparation of human 12hLO was supplied by Dr. Holman laboratory, University of California, Santa Cruz.
PROTOCOL TABLE SEQUENCE No. (e.g., 1, 2, 3, etc.); […] (e.g., Cells, Incubation, Reagent, etc.); VALUE; DESCRIPTION 1; Enzyme; 3 uL; 150 nM 12hLO enzyme solution dispensed in 1536-well Greiner black, clear bottom plates. 2; Compound; 23 nL; compounds and controls were added. 3; Incubate; 15 min; room temperature. 4; Substrate; 1 uL; 40 uM arachidonic acid (final concentration). 5; Incubate; 30 min; room temperature. 6; Reagent; 4 uL; Fe-XO solution was added to each well. 7; Incubation; 30 min; room temperature 8; Detector; absorbance; Read 1 at 405 nm absorbance using ViewLux (Perkin-Elmer) CCD imager. 9; Detector; absorbance; Read 2 at 573 nm absorbance using ViewLux (Perkin-Elmer) CCD imager. NOTES (numbers refer to sequence above) 1; 150 nM 12hLO (final concentration) in buffer solution (25 mM Hepes, 0.01% Triton X-100, pH 7.0) was dispensed in columns 1, 2, 5-48. Column 1 is neutral (100% activity). Buffer only was dispensed in columns 3 and 4 as no enzyme negative controls. The plates were covered with metal lids with gas-exchange holes. 2; Compounds were pin transferred via a Kalypsys Pin Tool (Wako USA) in column 5-48. Control compound was transferred in column 2, titration of nordihydroguaiaretic acid (NDGA, Sigma-Aldrich, N5023) with top concentration of 20 mM in DMSO then 1:3 dilution in duplicate. Dilution factor of 23 nL into 4 uL final assay volume. 3; Covered assay plates were incubated for 15 min at room temperature. 4; Substrate was added to start the reaction; 40 uM arachidonic acid (Sigma-Aldrich, St. Louis, MO) was dispensed throughout the plate. 6; Chromogenic detection reagent solution (divalent iron/xylenol orange, Fe-XO) was added to each well: 200 uM xylenol orange, 300 uM ferrous ammonium sulfate prepared freshly in 50 mM sulfuric acid. 8, 9; Two absorbance readouts were obtained at 405 nm and at 573 nm using a ViewLux high-throughput CCD plate imager (Perkin-Elmer). The 573 to 405 (Read 2 / Read 1) absorbance ratio was used to compute reaction progress.
Potency means the concentration at half of the fitted maximal effect.

| Structure (SMILES) | Potency |
| --- | --- |
| Cc1nn(C)cc1CN1CCC2(CCN(Cc3cccnc3)CC2)C(CO)C1 (configuration not stated) | inconclusive: 15.8 µM [inhibitor, partial curve, poor fit] |
| Cc1ccc(NCc2ccc(Cl)nc2)c(NCc2ccc(Cl)nc2)c1 | inconclusive: 50.1 µM [inhibitor, partial curve, poor fit] |
| C=C1C(=O)[C@]23C[C@H]1CCC2[C@]1(C)CCC[C@@](C)(C(=O)O)C1C[C@@H]3O (some centres not stated) | inactive |
| Cc1ccc(-c2c(CN3CCN(c4cccc(C)c4)C(C)C3)csc2C)cc1 (configuration not stated) | inconclusive: 56.2 µM [inhibitor, partial curve, poor fit] |
| C[C@@H](NS(C)(=O)=O)c1onc(-c2ccccc2)c1C(=O)O | inconclusive: 112 µM [inhibitor, partial curve, poor fit] |
| O=C(COC(=O)Cc1ccc(S(=O)(=O)N2CCCCC2)s1)Nc1ccc2c(c1)OCO2 | inconclusive: 35.5 µM [inhibitor, single point] |
| COc1ccc(NC2=Nc3cccc4cccc2c34)cc1OC | inconclusive: 56.2 µM [inhibitor, partial curve, poor fit] |
| Cc1csc(/C(C#N)=C\C2=Cc3cc(Cl)ccc3OC2)n1 | active: 50.1 µM |
| Cc1cccc(NC(=S)NC(=O)c2ccc(Br)o2)c1 | inconclusive: 25.1 µM [inhibitor, partial curve] |
| CCOc1ccc(S(=O)(=O)N(C)CCO)cc1-c1nc2c(C(C)(C)C)nn(C)c2c(=O)[nH]1 | inactive |
| COC(=O)c1ccc(C(=O)OC)c(NC(=O)COC(=O)CC2Sc3ccccc3NC2=O)c1 (configuration not stated) | inconclusive: 39.8 µM [inhibitor, partial curve] |
| CCSc1ccc([C@@H]2[C@@H]3C(=O)N(CC)C(=O)[C@@H]3[C@]3(C(=O)OC)CCCN23)cc1 | inconclusive: 31.6 µM [inhibitor, partial curve, poor fit] |
| CCCCOC(=O)c1ccc(NC(=S)NC(=O)c2c(Br)c(C)nn2C)cc1 | inactive |
| Cn1c(=O)[nH]c(=O)c2c1nc(SCC(=O)OCc1ccccc1)n2Cc1ccccc1Cl | inconclusive: 44.7 µM [inhibitor, partial curve, poor fit] |
| CC(C)c1ccc(CN(C(=O)Cc2c[nH]c3ccccc23)C2CC2)cc1 | inconclusive: 2 µM [inhibitor, full curve, poor fit] |
| Cn1c(=O)[nH]c(=O)c2c1nc(NCc1ccccc1Cl)n2Cc1ccccc1Cl | inactive |
| Cc1nc(N)sc1Cc1ccccc1 | inconclusive: 10 µM [inhibitor, full curve, poor fit] |

Some values from above:
Entry of COc1ccc(NC2=Nc3cccc4cccc2c34)cc1OC under Potency: inconclusive: 56.2 µM [inhibitor, partial curve, poor fit]
Entry of Cc1ccc(NCc2ccc(Cl)nc2)c(NCc2ccc(Cl)nc2)c1 under Potency: inconclusive: 50.1 µM [inhibitor, partial curve, poor fit]
